No constants are given. Whether binding was seen depends on the method and setting. In cells and extracts the contact can be indirect. These calls come from enrichment with a bait or labelling near it, and not all partners need be listed.
Target: Cdc2-GFP (S. pombe) (UniProt P04551)
Test: affinity purification with mass spectrometry

The chains behind the UniProt entries cited, without tags or fusion partners.
UniProt P04551: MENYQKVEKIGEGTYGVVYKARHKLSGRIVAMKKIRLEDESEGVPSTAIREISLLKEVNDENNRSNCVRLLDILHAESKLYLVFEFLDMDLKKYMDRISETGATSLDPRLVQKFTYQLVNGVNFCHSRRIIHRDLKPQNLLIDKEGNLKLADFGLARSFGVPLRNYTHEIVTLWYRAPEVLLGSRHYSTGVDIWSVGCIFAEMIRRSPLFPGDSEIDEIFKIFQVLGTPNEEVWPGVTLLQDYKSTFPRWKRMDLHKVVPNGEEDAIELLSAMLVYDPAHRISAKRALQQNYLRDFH

| Binder | binding |
| --- | --- |
| Suc1 (protein, UniProt P08463 1-113) MSKSGVPRLLTASERERLEPFIDQIHYSPRYADDEYEYRHVMLPKAMLKAIPTDYFNPETGTLRILQEEEWRGLGITQSLGWEMYEVHVPEPHILLFKREKDYQMKFSQQRGG | binds |
| Cdc13 (protein, UniProt P10815 1-482) MTTRRLTRQHLLANTLGNNDENHPSNHIARAKSSLHSSENSLVNGKKATVSSTNVPKKRHALDDVSNFHNKEGVPLASKNTNVRHTTASVSTRRALEEKSIIPATDDEPASKKRRQPSVFNSSVPSLPQHLSTKSHSVSTHGVDAFHKDQATIPKKLKKDVDERVVSKDIPKLHRDSVESPESQDWDDLDAEDWADPLMVSEYVVDIFEYLNELEIETMPSPTYMDRQKELAWKMRGILTDWLIEVHSRFRLLPETLFLAVNIIDRFLSLRVCSLNKLQLVGIAALFIASKYEEVMCPSVQNFVYMADGGYDEEEILQAERYILRVLEFNLAYPNPMNFLRRISKADFYDIQTRTVAKYLVEIGLLDHKLLPYPPSQQCAAAMYLAREMLGRGPWNRNLVHYSGYEEYQLISVVKKMINYLQKPVQHEAFFKKYASKKFMKASLFVRDWIKKNSIPLGDDADEDYTFHKQKRIQHDMKDEEW | binds |
| Cig2 (protein, UniProt P36630 1-411) MALYSISKPVGSKINKHSYQDENTLVGKQALSKGTEKTKLSTNFEINLPRRTVLSDVSNVGKNNADEKDTKKAKRSFDESNLSTNEEADKPVESKFVKKLKVYSKNADPSVETLQKDRVSNVDDHLSSNPLMAEEYAPEIFEYIRKLDLKCLPNPKYMDQQKELTWKMREILNEWLVEIHSNFCLMPETLYLAVNIIDRFLSRRSCSLSKFQLTGITALLIASKYEEVMCPSIQNFVYMTDGAFTVEDVCVAERYMLNVLNFDLSYPSPLNFLRKISQAEGYDAQTRTLGKYLTEIYLFDHDLLRYPMSKIAAAAMYLSRRLLRRGPWTPKLVESSGGYEEHELKEIAYIMLHYHNKPLEHKAFFQKYSSKRFLKASIFVHQLVRQRYSVNRTDDDDLQSEPSSSLTNDGH | binds |
| Rum1 (protein, UniProt P40380 1-230) MEPSTPPMRGLCTPSTPESPGSFKGVIDASLEGNSSIMIDEIPESDLPAPQVSTFPPTPAKTPKKQLLPNLMLQDRSNSLERCMEEDREHNPFLSSSDNQLLSRKKRKPTPPPSDGLYYVFRGKRIKKSFRPGTDLSTFKPKLLFADSAPSSSSDNPTSSVDLNDYSQIGILPPNLNSIGNKMFSLKSRVPSSSSGSFVAPPPQMRLPAYSSPQKSRSNTKDENRHNLLR | binds |
| Cig1 (protein, UniProt P24865 1-415) MDVSTQTRHATYFQDENQLQKDHIYVKKKSHIKLNTGVRAPFKAVDNINQQDEPTLIEGNNESSISSSTGDTFEEDFAYQDKVEIEERSIRSTPKSIGDDDLENREGSFDAPEGILTHGKHRLPTIPEWTKEDLAALSEAAARLQANPSPEDIETDPSMVPDYDPEIFHYMQSLERKLAPPPNYMSVQQEIDWVTRHMLVDWIVQVQIHFRLLPETLFLAVNLIDRFLSIKVVSLQKVQLVGLSALLIACKYEEIHPPSIYNFAHVVQGIFTVDEIIRAERYMLMLLDFDISWPGPMSFLRRISRADSYDHDIRMLAKYLQEVTLMDEIFIGAHISFIAATAYYLSMQMLGHLDWTPCHVYYSGYTARQLKPCAIIIMECLVDAPNHHNAIYRKYSENRMKRVSAFAHNWVLSVI | binds |
